Source: patent US20190352408A1
These are yes or no findings as the source states them, for the method shown. Some binding calls cover weakened binding; strength is not graded here.

Molecular target: T1, FLT3/IDT mutant on cell line MV-4-11 (UniProt P36888)
T1 sequence (looked up): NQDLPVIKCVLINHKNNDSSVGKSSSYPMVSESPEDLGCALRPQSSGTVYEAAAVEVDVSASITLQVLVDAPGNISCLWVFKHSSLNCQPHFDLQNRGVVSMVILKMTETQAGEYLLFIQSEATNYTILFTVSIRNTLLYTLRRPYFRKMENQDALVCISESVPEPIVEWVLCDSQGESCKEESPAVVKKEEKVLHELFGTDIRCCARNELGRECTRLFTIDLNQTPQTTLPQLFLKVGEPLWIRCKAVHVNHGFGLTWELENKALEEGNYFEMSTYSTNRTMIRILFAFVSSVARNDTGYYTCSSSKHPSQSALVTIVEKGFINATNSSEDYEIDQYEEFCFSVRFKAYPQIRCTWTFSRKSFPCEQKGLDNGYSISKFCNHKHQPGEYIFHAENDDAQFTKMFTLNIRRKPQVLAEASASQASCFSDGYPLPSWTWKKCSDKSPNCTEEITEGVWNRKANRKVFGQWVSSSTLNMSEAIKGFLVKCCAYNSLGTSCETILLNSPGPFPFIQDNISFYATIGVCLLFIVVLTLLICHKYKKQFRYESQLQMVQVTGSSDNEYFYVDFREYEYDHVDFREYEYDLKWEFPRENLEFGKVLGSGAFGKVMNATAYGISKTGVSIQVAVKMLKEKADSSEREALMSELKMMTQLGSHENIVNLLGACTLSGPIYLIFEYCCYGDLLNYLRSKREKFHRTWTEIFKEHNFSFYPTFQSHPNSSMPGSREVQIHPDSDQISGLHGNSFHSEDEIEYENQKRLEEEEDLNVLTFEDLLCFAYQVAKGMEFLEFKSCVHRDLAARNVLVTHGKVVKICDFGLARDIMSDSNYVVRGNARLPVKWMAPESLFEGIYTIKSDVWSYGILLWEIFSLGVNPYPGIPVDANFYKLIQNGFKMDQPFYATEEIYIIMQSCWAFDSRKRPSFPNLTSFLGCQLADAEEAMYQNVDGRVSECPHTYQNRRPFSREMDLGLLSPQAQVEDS
Assay: flow cytometry on MV-4-11 cells, anti-His-PE detection

B1: m1012 (VHH)
VHH: EVQLVESGGGLVQPGGSLRLSCAASRFYFSGYEMSWVRQAPGKGLEWVSAISGSGGSTYYADSVKGRFTISRDNSKNTLYLQMNSLRAEDTAVYYCARRVVGAKLYFQHWGQGTLVTVSS
binding: binds
